Source: patent publication US20210069230A1, “SYNERGISTIC DRUG COMBINATIONS PREDICTED FROM GENOMIC FEATURES AND SINGLE-AGENT RESPONSE PROFILES” (THE BROAD INSTITUTE, INC., priority 2018, published 2021)
For some assays here: At least one structure is not confirmed: it was looked up by name or label, or the drawing left a doubt. Some of these results come from one statement about several compounds together. Some compounds share one range, which may span the group rather than tell each member.

Legend:
Assay type in all cases: cell-based
[1] = tested on: T47D cells overexpressing IRS2; experiment: Lentiviral ORF overexpression, compound sensitivity (CellTiter-Glo, GR); settings: 72 hours
KMRC3 cells = experiment: IncuCyte live-cell microscopy of cellular proliferation
Experimental: Cell lines were taken from viably frozen stocks of the same original provenance as for CTRP and DepMap data, with identity confirmed by SNP-based DNA fingerprinting as described previously (12, 13, 39). Cell lines were propagated using the same media and culture conditions as for CTRPv2.0 experiments. […] For live-cell imaging, cells were plated into clear-bottom plates (Corning) and imaged on an IncuCyte S3 throughout the course of the experiment. For CellTiter-Glo experiments, the initial viability of a subset of plated cells was established at the same time as compound addition using CellTiter-Glo as described previously (24). […] DMSO- and D0-normalized concentration-response curves were generated using four-parameter nonlinear regression using the drc package in R (40). Biphasic curves were also fit and prioritized relative to standard four-parameter curves where appropriate using the BIC (Bayesian information criteria) metric. […] General-purpose optimization (Nelder-Mean algorithm) was used for single-agent fits, and the “model” option was used to predict variance. Overall significance was assessed using the bootstrapped meanR test (n=1000 iterations), and per-concentration significance using maxR, as described by the package authors.

[2] = tested on: WM2664 cells overexpressing MGMT; experiment: Lentiviral ORF overexpression, compound sensitivity (live-cell imaging, GR); settings: 120 hours
Experimental: Cell lines were taken from viably frozen stocks of the same original provenance as for CTRP and DepMap data, with identity confirmed by SNP-based DNA fingerprinting as described previously (12, 13, 39). Cell lines were propagated using the same media and culture conditions as for CTRPv2.0 experiments. […] For live-cell imaging, cells were plated into clear-bottom plates (Corning) and imaged on an IncuCyte S3 throughout the course of the experiment. For CellTiter-Glo experiments, the initial viability of a subset of plated cells was established at the same time as compound addition using CellTiter-Glo as described previously (24). […] DMSO- and D0-normalized concentration-response curves were generated using four-parameter nonlinear regression using the drc package in R (40). […] Overall significance was assessed using the bootstrapped meanR test (n=1000 iterations), and per-concentration significance using maxR, as described by the package authors. […]
Parental cell lines were virally transduced with cDNAs that constitutively overexpressed BCL2L1, AIFM2, or MGLL (in G402 and CJM cells); ABCB1 or MGMT (in WM2664 cells); SLC7A11 (in BT12 and G402 cells); MCL1 (in HCC1500 cells); or IRS2 (in T47D cells) and subsequently drug sensitivity was measured. […]

[3] = tested on: G402 and CJM cells overexpressing BCL2L1; experiment: Lentiviral ORF overexpression, compound sensitivity (CellTiter-Glo, GR); settings: 72 hours

SMILES | resistance (GR50 shift) conferred by IRS2 overexpression [1] | further results
CS(=O)(=O)N1CCN(Cc2cc3nc(-c4cccc5[nH]ncc45)nc(N4CCOCC4)c3s2)CC1 [pictilisib] | 2-4 fold | –
FC(F)c1nc2ccccc2n1-c1nc(N2CCOCC2)nc(N2CCOCC2)n1 [ZSTK474] | 2-4 fold | –
OCCCNc1cc(N2CCc3ccccc3CC2)nc(-c2ccccn2)n1 [KDOBA67] | – | time at which effects on cellular proliferation were observed (KMRC3 cells): ≤ 24 h
Cn1nnc2c(C(N)=O)ncn2c1=O [temozolomide] | – | toxicity in MGMT-overexpressing cells [2]: no detectable toxicity
CCOC(=O)CCNc1cc(N2CCc3ccccc3CC2)nc(-c2ccccn2)n1 [GSK-J4] | – | time at which effects on cellular proliferation were observed (KMRC3 cells): ≤ 24 h
COc1cccc2c1C(=O)c1c(O)c3c(c(O)c1C2=O)C[C@@](O)(C(=O)CO)C[C@@H]3O[C@H]1C[C@H](N)[C@H](O)[C@H](C)O1 [doxorubicin] | – | changes in GR50 conferred by BCL2L1 overexpression [3]: 2-4 fold
CO[C@H]1C[C@@H]2CC[C@@H](C)[C@@](O)(O2)C(=O)C(=O)N2CCCC[C@H]2C(=O)O[C@H]([C@H](C)C[C@@H]2CC[C@@H](O)[C@H](OC)C2)CC(=O)[C@H](C)/C=C(\C)[C@@H](O)[C@@H](OC)C(=O)[C@H](C)C[C@H](C)/C=C/C=C/C=C/1C [sirolimus] | 2-4 fold | –
Cc1nc(NC(=O)N2CCC[C@H]2C(N)=O)sc1-c1ccnc(C(C)(C)C(F)(F)F)c1 [alpelisib] | 2-4 fold | –
